Measurements from article doi:10.1101/2022.11.30.518502.
No constants are given. Whether binding was seen depends on the method and setting. Binding seen in cells or lysates may run through a third protein.

Chains of the proteins cited; added tags and fusions are not shown. Lines headed by an entry give the natural chain unless they say otherwise; changes in a name come on top. A line that says so, or that is headed by a name, gives the form on record, which may keep a tag or linker.
Myc-Tau^WT (P10636, form named): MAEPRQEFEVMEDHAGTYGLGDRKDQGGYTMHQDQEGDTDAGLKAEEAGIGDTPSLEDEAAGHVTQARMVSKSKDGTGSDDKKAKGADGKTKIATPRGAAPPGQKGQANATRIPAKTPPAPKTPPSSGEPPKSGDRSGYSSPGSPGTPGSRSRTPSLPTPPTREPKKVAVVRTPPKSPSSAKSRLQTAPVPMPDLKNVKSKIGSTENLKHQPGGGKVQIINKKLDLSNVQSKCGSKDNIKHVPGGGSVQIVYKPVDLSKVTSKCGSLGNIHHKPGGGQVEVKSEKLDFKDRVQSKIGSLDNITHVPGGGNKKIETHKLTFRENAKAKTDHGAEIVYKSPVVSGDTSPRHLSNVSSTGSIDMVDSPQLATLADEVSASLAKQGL

Target: Myc-Tau^WT (human) (UniProt P10636)
Test: co-IP

binding: no binding
B1: TOM40 (protein, UniProt O96008 1-361)
chain: MGNVLAASSPPAGPPPPPAPALVGLPPPPPSPPGFTLPPLGGSLGAGTSTSRSSERTPGAATASASGAAEDGACGCLPNPGTFEECHRKCKELFPIQMEGVKLTVNKGLSNHFQVNHTVALSTIGESNYHFGVTYVGTKQLSPTEAFPVLVGDMDNSGSLNAQVIHQLGPGLRSKMAIQTQQSKFVNWQVDGEYRGSDFTAAVTLGNPDVLVGSGILVAHYLQSITPCLALGGELVYHRRPGEEGTVMSLAGKYTLNNWLATVTLGQAGMHATYYHKASDQLQVGVEFEASTRMQDTSVSFGYQLDLPKANLLFKGSVDSNWIVGATLEKKLPPLPLTLALGAFLNHRKNKFQCGFGLTIG
